Measured values taken from PMC5739756.
No constants are given. Whether binding was seen depends on the method and setting. Binding seen in cells or lysates may run through a third protein. Some binding calls cover weakened binding; strength is not graded here.

Target: T1, Transforming growth factor-β-activated kinase 1 (TAK1) (human (endogenous in SW480)) (UniProt O43318)
T1 sequence: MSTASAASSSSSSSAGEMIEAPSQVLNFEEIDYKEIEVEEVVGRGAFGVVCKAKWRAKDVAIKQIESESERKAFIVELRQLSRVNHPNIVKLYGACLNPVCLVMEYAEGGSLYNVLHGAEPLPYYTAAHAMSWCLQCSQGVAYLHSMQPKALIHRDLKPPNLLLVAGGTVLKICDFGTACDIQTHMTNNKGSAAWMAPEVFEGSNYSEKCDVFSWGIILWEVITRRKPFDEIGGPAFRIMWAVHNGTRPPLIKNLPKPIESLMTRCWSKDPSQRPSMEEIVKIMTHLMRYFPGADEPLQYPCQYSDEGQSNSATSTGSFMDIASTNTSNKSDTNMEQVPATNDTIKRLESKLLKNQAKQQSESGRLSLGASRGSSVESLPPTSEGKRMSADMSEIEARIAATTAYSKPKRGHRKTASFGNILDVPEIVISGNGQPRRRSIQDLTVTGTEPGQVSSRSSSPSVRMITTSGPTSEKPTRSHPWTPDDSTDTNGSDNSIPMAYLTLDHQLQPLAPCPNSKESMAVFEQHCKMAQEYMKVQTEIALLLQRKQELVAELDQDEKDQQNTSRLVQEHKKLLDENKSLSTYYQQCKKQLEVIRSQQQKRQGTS
Experiment: co-IP; co-IP among endogenous TAB3, TAK1 and TRAF6 in SW480 cells; procedure as previously described (ref. 37); also done after silencing (shTAB3, shTRAF6, shTAK1) or overexpression of TAB3, TRAF6 or TAK1 in CRC cells: the interaction decreased or increased

B1: Transforming growth factor-β-activated kinase 1 (TAK1)-binding protein 3 (TAB3) (protein, UniProt Q8N5C8 1-712)
chain: MAQSSPQLDIQVLHDLRQRFPEIPEGVVSQCMLQNNNNLEACCRALSQESSKYLYMEYHSPDDNRMNRNRLLHINLGIHSPSSYHPGDGAQLNGGRTLVHSSSDGHIDPQHAAGKQLICLVQEPHSAPAVVAATPNYNPFFMNEQNRSAATPPSQPPQQPSSMQTGMNPSAMQGPSPPPPPPSYMHIPRYSTNPITVTVSQNLPSGQTVPRALQILPQIPSNLYGSPGSIYIRQTSQSSSGRQTPQSTPWQSSPQGPVPHYSQRPLPVYPHQQNYQPSQYSPKQQQIPQSAYHSPPPSQCPSPFSSPQHQVQPSQLGHIFMPPSPSTTPPHPYQQGPPSYQKQGSHSVAYLPYTASSLSKGSMKKIEITVEPSQRPGTAINRSPSPISNQPSPRNQHSLYTATTPPSSSPSRGISSQPKPPFSVNPVYITYTQPTGPSCTPSPSPRVIPNPTTVFKITVGRATTENLLNLVDQEERSAAPEPIQPISVIPGSGGEKGSHKYQRSSSSGSDDYAYTQALLLHQRARMERLAKQLKLEKEELERLKSEVNGMEHDLMQRRLRRVSCTTAIPTPEEMTRLRSMNRQLQINVDCTLKEVDLLQSRGNFDPKAMNNFYDNIEPGPVVPPKPSKKDSSDPCTIERKARRISVTSKVQADIHDTQAAAADEHRTGSTQSPRTQPRDEDYEGAPWNCDSCTFLNHPALNRCEQCEMPRYT
- binding: binds
